Laboratory results reported in patent US20200002710A1, “SYSTEMS AND METHODS FOR CONTROL OF GENE EXPRESSION” (TRUSTEES OF BOSTON UNIVERSITY, published 2020).

Test system: T1, 43-8 low affinity yeast synTF (artificial)
T1 sequence (limits assumed): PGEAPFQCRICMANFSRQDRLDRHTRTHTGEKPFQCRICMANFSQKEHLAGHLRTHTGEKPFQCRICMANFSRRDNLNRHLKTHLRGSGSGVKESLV
Assay: activity in cells
Conditions: yeast GFP reporter activation, enhanced by clamp; protein in cells; protein details: 3xFLAG, SV40 NLS, VP16, C-terminal PDZ ligand

## GAATTCAGAGTGAGGACTCGAGAGTGAGGACGGATCCCAGATCCGCCAGGCGTGTATATATAGCGTGGATGGCCAGGCAACTTTAGTGCTGACACATACAGGCATATATATATGTGTGCGACGACACATGATCATATGGCATGCATGTGCTCTGTATGTATATAAAACTCTTGTTTTCTTCTTTTCTCTAAATATTCTTTCCTTATACATTAGGACCTTTGCAGCATAAATTACTATACTTCTATAGACACACAAACACAAATACACACACTAATCTAGATATTAAAATG (double strand) [(43-8 DBM)miniCyc1 promoter]
  activity on this sequence: active

Where a protein sequence is shown, tags need not be part of it.
